## Primary screen of a compound library

From ChEMBL document CHEMBL3988442, “University of Dundee, Small-Polar-MMV Screening Library” (2021).

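Cell assay of Leishmania donovani living inside macrophages; the read-out is not stated. Concentration: 30 µM. Higher reads as stronger inhibition (inferred: compounds with an IC50 in retests scored well above the rest). Size under these conditions: about 69,000 compounds, about 1,000 of them at 50% or above in at least one test.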

Values are the deposited “Percent Effect”, in %.
The record does not define 0% and 100%; most values in the screen are far below 50% and negative numbers occur (in some assays of this library far below -100).
Compounds were drawn at random from those tested, without regard to their results.
Two or more numbers in one place are separate tests of the same structure; such repeats can differ widely.

| compound | effect |
|---|---|
| `Cc1cc(Br)ccc1NCc1ccc(C(=O)N(C)C)[nH]1` | -5.081% |
| `Cn1nccc1C(=O)N1CCOC(Cc2cccc(C(F)(F)F)c2)C1` (stereo unspecified) | 12.73% |
| `O=C(c1ccc(NC2CC2)nc1)N1CCCC(n2cccn2)C1` (stereo unspecified) | 2.424% |
| `O=C(COc1ccccc1)NCC1CC1` | -23.6% |
| `Cc1ccsc1CCNC(C)C(=O)NC1CCCC1` (stereo unspecified) | 21.96% |
| `O=C(CN1CC(c2nc(-c3ccco3)no2)C1)NCc1ccc(F)cc1.O=C(O)C(=O)O` | 20.83% |
| `CCOC(C)C(=O)NCc1cccc(CN2CCCCCC2)c1` (stereo unspecified) | -11.32% |
| `O=C(O)C(F)(F)F.[H][C@]12CC[C@@]3(N=C(C)N(CC4CC4)C3=O)[C@@]1([H])CN(CCOC)C2` | 17.58% |
| `O=C(O)C(F)(F)F.[H][C@]12CCC[C@@]1(COCc1cccc(C)n1)CN(S(=O)(=O)N(C)C)C2` | 10.78% |
| `Cc1noc(C)c1CCC(=O)N1CCN(CCn2cccn2)CC1` | 24.16% |
| `CN(Cc1ccc(Cl)c(F)c1)C(=O)c1ccncc1F` | -14.18% |
| `CC(C)c1nc2n(n1)CC(NCc1nnc(C3CC3)o1)CC2` (stereo unspecified) | 22.88% |
| `O=C(NCC1CC[C@@]2(CNCCOC2)O1)c1cnccn1` (stereo partly specified) | 4.689% & -26.02% |
| `COc1ccc(NC(=O)Cn2ccc3c(=O)n(C)ccc32)cc1OC` | -35.04% |
| `O=S(=O)(N1CCCC1)N(Cc1ccccc1)CC1CCCO1` (stereo unspecified) | 17.83% |
| `CCc1nc(C)c(CNC(=O)CCCN2CCCCC2)s1` | 0.3819% |
| `CCOc1c(F)cccc1C(=O)N(CC)C(C)c1ccncc1` (stereo unspecified) | -1.591% |
| `CN(C)CCN(C)c1cc(N2CCN(c3ccccn3)CC2)ncn1` | 8.979% |
| `CC(C)Nc1nc2c(c(NC3CC3)n1)CCN(C1CCOCC1)CC2` | 70.3% |
| `Cc1ccc(NC2CCN(C(=O)Cc3cccc(F)c3)CC2)nn1` | 27.87% |
| `COCC1COCCC12CCN(C(=O)COc1ccccc1)CC2` (stereo unspecified) | -2.56% |
| `Cc1nn(C)c(C)c1CC(=O)N1CCCC(n2cccn2)C1` (stereo unspecified) | 20.74% |
| `CCc1ccc(NC(=O)c2ncc(C(N)=O)cc2Cl)cc1F` | -86.53% |
| `NC(=O)COc1ccc(C2NC(=O)CN2Cc2ccc(Br)cc2)cc1` (stereo unspecified) | 7.249% |
| `Cc1ncc(CN2CCc3c(nc4cc(C5CC5)nn4c3O)C2)n1C` | -0.616% |
| `CC(CS(C)(=O)=O)N(C(=O)CCc1ccsc1)C1CC1` (stereo unspecified) | 9.041% |
| `CCN(Cc1noc(CC(C)C)n1)Cc1ncccc1C(=O)O` | 16.41% |
| `O=C(c1ccnnc1)N1CCC2(CC1)CCN(C(=O)c1cccnc1)C2` | 30.12% |
| `C1CCCN(c2nc(C3CC3)ns2)CC1` | -22.19% |
| `CCc1n[nH]c(C2CN(C(=O)c3nc(C)n4ccccc34)CCO2)n1` (stereo unspecified) | 8.191% |
| `c1ccc(OCCCN2CCOC(CNc3cccnn3)C2)cc1` (stereo unspecified) | 30.1% |
| `Cc1nnc(NC(=O)NCc2ccc(N3CCC(C)CC3)nc2)s1` | 20.1% |
| `Cc1nsc(NC2CCOC3(CCCC3)C2)n1` (stereo unspecified) | 14.05% |
| `c1cnc(-c2nn3c(CN4CCCCC4)nnc3s2)cn1` | 13.44% |
| `CCCS(=O)(=O)N1CCc2nc(N3CCOCC3)nc(N(C)C)c2C1` | 7.622% |
| `O=C(NCCNCC1CNc2ccnn2C1)c1ccc(F)cc1` (stereo unspecified) | 15.14% |
| `O=C(O)C(F)(F)F.[H][C@]12CCN(C(=O)NCc3cccnc3)C[C@@]1([H])OCCN(C(C)=O)C2` | 15.97% |
| `CCn1ccnc1CN1CCOC(Cn2cccn2)C1` (stereo unspecified) | 0.741% |
| `O=C(NCc1cc(=O)n2c(n1)CN(CC1CCOC1)CCC2)C1CC1.O=C(O)C(F)(F)F` (stereo unspecified) | 21.63% |
| `O=C(O)C(F)(F)F.[H][C@@]12COC[C@]1(COCC1CCCC1)CN(c1ncccn1)C2` | -14.14% |
| `C[C@H](N)C(=O)N1CCC(c2[nH]ncc2-c2ccccc2)CC1` | 35.31% |
| `Cc1nc(CNCc2ccc(OC34CCCN(CC3)C4)cc2)n[nH]1` (stereo unspecified) | -17.57% |
| `CO[C@@H]1CN(c2ccccc2)S(=O)(=O)[C@@]12CCNC2` | 10.4% |
| `CCOc1ccccc1N(C)Cc1nccn1C` | 21.19% |
| `Cc1nc(C)n(CC2CN(Cc3ccccc3C#N)CCO2)n1` (stereo unspecified) | 20.27% |
| `Cc1nc(-c2ccsc2)ccc1C(=O)NCCCN1CCOCC1` | 18.46% |
| `CC(C)N(C)Cc1cc(=O)n2c(n1)CN(C(=O)c1ccnnc1)CCC2` | 12.58% |
| `O=C(Oc1ccccc1)N1CCC(CNS(=O)(=O)c2cccnc2)CC1` | -128.7% |
| `COCCn1ccnc1C1CCCN(C(=O)c2ccccc2C#N)C1` (stereo unspecified) | -12.52% |
| `O=S(=O)(CC1CCCN1S(=O)(=O)C1CC1)c1ccccc1` (stereo unspecified) | -20.96% |
| `CC(CO)(NC(=O)NCCc1ccc(Br)s1)C1CC1` (stereo unspecified) | 2.674% |
| `CCc1csc(C2CCCN(C(=O)c3ccc4c(c3)OCO4)C2)n1` (stereo unspecified) | -18.73% |
| `Cc1ccc(NC(C)C(=O)N(C)Cc2cccc(F)c2)cc1C(N)=O` (stereo unspecified) | 24.46% |
| `Cc1nc2c(c(N[C@@H](CO)C(N)=O)n1)Cc1ccccc1OC2` | -5.419% |
| `O=c1[nH]ccc2cc(-c3cc(O)cc(CCC4CCCCN4)c3)ccc12` (stereo unspecified) | 35.94% |
| `Cc1nn(C)c(C)c1C1CCCN1Cc1nc2ccccc2o1` (stereo unspecified) | 38.48% |
| `CC(=O)NCCC(=O)NCCCOc1c(C)cccc1C` | 6.783% |
| `COCC1CN(C(=O)c2ccccn2)Cc2nccn2C1` (stereo unspecified) | 8.407% |
| `CCOCC1CN(C(=O)c2ccncc2)Cc2nn(C)cc21.O=C(O)C(F)(F)F` (stereo unspecified) | 6.127% |
| `COc1ccc(CNC(=O)NC2CCN(c3ccccc3)C2=O)cc1` (stereo unspecified) | 18.59% |
| `CN(C)Cc1cc(-c2nccn2CCc2cccnc2)ccc1O` | 21.52% |
| `O=C(c1cc[nH]n1)N1CCN(C(c2ccccc2)C(F)(F)F)CC1` (stereo unspecified) | -2.475% |

The last 4 entries again:

| compound | effect |
|---|---|
| `CCOCC1CN(C(=O)c2ccncc2)Cc2nn(C)cc21.O=C(O)C(F)(F)F` (stereo unspecified) | 6.127% |
| `COc1ccc(CNC(=O)NC2CCN(c3ccccc3)C2=O)cc1` (stereo unspecified) | 18.59% |
| `CN(C)Cc1cc(-c2nccn2CCc2cccnc2)ccc1O` | 21.52% |
| `O=C(c1cc[nH]n1)N1CCN(C(c2ccccc2)C(F)(F)F)CC1` (stereo unspecified) | -2.475% |